Measurements as given in paper PMC9761386.
These are yes or no findings as the source states them, for the method shown. In cells and extracts the contact can be indirect. These calls come from enrichment with a bait or labelling near it, and not all partners need be listed.

Amino acid sequences for entries named in this document (tags omitted). Residues count along the entry.
UniProt Q9EP73, residues 19-290: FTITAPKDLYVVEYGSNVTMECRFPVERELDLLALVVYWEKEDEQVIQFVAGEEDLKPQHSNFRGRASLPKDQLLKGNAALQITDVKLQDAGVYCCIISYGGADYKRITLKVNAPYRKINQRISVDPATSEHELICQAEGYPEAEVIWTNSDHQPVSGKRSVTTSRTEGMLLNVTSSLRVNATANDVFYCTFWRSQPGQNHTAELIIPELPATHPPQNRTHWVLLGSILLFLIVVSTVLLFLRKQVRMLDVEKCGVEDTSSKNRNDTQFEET
UniProt A2A5R2: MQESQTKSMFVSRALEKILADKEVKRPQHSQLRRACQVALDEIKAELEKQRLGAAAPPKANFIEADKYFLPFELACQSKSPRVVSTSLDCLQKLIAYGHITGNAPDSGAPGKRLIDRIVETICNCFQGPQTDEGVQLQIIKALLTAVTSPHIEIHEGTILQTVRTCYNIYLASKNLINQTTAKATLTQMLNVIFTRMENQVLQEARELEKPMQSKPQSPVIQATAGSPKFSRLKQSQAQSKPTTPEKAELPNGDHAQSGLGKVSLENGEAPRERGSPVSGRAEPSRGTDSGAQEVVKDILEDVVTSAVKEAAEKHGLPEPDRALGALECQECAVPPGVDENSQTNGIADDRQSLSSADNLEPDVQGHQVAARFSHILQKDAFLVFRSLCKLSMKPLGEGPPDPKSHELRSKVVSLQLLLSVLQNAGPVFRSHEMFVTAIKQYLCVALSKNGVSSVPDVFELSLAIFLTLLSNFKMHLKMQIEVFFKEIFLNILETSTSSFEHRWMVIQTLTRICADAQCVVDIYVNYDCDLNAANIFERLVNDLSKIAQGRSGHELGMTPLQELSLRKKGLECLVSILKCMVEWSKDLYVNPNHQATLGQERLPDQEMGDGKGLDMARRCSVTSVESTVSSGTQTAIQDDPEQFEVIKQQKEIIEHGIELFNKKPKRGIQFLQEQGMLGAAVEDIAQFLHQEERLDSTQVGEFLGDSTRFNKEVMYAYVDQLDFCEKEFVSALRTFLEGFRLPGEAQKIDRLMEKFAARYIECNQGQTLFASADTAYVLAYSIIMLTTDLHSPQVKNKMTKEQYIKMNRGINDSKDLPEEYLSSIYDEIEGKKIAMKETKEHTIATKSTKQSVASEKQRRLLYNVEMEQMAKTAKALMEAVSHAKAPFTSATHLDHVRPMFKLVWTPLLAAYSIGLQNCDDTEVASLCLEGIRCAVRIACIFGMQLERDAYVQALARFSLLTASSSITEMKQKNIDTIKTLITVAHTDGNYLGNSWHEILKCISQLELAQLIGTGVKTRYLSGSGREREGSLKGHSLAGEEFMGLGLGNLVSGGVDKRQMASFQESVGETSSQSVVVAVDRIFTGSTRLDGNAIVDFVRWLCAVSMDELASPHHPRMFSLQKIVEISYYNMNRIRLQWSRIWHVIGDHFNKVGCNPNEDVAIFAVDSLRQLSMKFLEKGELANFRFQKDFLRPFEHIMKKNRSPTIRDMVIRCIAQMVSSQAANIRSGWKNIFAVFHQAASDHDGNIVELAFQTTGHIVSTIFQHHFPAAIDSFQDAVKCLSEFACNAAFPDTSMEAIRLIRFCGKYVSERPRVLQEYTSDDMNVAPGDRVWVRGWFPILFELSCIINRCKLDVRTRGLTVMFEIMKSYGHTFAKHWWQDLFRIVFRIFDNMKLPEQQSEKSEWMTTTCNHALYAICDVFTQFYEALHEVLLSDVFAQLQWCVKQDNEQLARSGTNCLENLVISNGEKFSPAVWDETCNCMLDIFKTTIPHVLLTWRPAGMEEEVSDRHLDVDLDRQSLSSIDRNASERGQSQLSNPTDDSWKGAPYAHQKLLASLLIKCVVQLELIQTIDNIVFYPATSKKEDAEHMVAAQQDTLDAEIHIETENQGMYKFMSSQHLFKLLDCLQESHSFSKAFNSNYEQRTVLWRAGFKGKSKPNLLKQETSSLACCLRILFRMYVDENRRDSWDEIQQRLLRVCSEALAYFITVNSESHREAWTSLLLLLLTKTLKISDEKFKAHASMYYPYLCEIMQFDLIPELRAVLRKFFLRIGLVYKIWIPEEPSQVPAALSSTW
UniProt Q6PF93: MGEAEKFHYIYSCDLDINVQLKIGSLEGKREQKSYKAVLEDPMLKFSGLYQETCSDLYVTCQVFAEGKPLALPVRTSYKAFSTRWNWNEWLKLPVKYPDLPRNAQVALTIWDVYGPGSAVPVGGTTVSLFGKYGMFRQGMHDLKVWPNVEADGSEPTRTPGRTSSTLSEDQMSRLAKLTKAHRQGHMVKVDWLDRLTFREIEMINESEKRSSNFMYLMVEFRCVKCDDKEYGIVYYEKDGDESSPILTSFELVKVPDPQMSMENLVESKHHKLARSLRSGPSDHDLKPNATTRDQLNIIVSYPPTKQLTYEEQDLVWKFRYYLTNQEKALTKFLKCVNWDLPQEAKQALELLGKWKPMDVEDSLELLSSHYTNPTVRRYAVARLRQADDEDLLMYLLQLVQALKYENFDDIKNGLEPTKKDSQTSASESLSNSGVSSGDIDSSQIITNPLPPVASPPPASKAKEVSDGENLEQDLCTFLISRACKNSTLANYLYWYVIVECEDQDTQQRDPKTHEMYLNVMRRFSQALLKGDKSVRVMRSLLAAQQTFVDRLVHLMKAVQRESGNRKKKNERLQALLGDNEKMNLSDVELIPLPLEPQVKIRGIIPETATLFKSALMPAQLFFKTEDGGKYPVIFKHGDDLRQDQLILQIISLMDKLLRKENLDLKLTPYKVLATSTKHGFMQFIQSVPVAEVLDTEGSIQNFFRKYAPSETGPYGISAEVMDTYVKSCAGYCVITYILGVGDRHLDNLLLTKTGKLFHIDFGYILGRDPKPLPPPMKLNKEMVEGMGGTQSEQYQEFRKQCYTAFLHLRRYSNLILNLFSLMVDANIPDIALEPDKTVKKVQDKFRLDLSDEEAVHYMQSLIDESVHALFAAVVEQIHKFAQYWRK
UniProt Q8BTI9: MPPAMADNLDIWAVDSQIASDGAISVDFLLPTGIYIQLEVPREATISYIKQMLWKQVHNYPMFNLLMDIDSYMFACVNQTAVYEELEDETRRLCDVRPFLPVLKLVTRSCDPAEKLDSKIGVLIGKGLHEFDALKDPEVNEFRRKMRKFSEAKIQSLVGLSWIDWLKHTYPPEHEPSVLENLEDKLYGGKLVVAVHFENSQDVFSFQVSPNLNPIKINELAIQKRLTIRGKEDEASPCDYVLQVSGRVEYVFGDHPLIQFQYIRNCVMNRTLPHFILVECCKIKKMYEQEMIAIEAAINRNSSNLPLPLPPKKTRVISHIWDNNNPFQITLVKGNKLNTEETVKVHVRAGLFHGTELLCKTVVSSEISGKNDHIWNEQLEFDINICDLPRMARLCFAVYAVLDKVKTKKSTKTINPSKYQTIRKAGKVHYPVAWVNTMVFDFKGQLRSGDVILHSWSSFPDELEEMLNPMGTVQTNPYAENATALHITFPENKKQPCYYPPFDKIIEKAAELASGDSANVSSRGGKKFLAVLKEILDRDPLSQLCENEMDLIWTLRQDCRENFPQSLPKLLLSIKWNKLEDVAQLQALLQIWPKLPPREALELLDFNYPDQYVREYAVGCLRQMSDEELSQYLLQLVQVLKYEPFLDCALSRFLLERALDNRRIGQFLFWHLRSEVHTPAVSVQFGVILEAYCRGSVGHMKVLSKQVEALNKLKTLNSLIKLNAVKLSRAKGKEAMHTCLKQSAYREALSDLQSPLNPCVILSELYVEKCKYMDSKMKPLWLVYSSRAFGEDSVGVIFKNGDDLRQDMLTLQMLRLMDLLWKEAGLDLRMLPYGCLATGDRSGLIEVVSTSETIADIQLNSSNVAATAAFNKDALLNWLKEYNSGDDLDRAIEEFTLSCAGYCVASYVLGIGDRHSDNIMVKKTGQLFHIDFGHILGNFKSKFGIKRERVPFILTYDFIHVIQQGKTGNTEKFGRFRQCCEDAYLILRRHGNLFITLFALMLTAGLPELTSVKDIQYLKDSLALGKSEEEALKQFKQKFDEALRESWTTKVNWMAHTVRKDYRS
UniProt Q8VI36: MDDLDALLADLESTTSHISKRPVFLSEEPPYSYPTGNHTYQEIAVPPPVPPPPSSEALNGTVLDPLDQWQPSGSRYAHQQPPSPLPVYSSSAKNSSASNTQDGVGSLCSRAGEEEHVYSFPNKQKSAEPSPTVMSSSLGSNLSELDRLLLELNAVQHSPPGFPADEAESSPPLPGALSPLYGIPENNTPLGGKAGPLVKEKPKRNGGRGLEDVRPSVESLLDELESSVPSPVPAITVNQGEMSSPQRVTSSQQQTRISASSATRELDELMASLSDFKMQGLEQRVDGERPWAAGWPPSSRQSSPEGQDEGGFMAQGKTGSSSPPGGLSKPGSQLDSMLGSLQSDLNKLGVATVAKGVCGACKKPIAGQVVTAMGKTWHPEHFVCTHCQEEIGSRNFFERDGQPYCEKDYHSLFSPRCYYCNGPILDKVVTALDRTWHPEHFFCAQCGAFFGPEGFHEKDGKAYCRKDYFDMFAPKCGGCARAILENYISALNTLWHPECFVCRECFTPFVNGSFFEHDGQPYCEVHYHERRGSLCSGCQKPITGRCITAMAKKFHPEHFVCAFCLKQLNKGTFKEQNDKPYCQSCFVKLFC
UniProt Q60715, residues 18-534: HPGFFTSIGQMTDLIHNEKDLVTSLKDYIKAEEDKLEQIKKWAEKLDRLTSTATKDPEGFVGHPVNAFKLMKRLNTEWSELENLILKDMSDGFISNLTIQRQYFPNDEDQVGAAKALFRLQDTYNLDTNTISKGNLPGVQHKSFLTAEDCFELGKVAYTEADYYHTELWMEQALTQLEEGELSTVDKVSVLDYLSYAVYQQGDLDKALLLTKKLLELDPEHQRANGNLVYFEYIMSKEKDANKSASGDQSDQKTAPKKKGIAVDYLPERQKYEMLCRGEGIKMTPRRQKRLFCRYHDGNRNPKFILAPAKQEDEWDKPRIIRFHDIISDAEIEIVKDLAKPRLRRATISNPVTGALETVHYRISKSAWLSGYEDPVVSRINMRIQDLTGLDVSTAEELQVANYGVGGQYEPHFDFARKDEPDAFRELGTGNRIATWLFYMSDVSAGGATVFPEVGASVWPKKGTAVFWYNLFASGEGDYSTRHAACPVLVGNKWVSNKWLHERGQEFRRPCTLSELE
UniProt P42227: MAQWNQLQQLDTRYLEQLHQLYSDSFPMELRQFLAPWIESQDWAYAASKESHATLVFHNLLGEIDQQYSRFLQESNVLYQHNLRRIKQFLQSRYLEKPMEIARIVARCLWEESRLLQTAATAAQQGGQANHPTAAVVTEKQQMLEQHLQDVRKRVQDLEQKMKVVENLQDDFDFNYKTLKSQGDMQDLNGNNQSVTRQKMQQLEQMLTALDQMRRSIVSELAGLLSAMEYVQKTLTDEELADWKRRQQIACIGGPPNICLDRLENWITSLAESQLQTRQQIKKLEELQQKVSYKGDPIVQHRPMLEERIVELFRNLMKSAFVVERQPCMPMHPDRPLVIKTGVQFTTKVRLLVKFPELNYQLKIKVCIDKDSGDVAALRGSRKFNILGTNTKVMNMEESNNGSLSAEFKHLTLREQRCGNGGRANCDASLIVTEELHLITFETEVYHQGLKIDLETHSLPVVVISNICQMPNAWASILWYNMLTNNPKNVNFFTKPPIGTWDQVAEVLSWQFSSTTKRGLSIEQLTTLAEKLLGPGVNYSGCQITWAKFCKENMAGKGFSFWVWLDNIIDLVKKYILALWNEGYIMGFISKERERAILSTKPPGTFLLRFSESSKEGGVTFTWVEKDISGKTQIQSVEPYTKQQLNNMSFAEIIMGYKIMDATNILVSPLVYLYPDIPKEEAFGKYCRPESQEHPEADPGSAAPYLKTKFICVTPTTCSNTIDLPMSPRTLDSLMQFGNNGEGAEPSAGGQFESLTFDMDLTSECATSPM
UniProt Q8K0F1: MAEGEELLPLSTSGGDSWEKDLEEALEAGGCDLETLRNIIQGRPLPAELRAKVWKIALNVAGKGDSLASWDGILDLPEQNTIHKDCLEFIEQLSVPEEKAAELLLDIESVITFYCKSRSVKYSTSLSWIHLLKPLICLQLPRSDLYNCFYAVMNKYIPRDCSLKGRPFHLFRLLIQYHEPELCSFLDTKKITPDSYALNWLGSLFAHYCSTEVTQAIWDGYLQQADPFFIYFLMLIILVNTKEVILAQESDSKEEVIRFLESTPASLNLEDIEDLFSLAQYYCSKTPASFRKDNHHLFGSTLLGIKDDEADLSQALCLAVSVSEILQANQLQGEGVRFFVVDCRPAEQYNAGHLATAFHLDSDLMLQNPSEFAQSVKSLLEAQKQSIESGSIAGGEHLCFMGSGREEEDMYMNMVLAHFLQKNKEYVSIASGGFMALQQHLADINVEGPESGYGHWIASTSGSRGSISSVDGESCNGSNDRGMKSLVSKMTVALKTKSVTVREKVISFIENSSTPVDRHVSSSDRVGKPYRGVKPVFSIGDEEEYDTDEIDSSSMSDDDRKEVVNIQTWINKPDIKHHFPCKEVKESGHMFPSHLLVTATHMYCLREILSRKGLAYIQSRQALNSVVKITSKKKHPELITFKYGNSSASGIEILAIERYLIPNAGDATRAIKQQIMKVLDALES

B1: T-cell-specific guanine nucleotide triphosphate-binding protein 1 (protein, UniProt Q62293 1-415)
chain: MAWASSFDAFFKNFKRESKIISEYDITLIMTYIEENKLQKAVSVIEKVLRDIESAPLHIAVTGETGAGKSTFINTLRGVGHEEKGAAPTGAIETTMKRTPYPHPKLPNVTIWDLPGIGTTNFTPQNYLTEMKFGEYDFFIIISATRFKENDAQLAKAIAQMGMNFYFVRTKIDSDLDNEQKFKPKSFNKEEVLKNIKDYCSNHLQESLDSEPPVFLVSNVDISKYDFPKLETKLLQDLPAHKRHVFSLSLQSLTEATINYKRDSLKQKVFLEAMKAGALATIPLGGMISDILENLDETFNLYRSYFGLDDASLENIAQDLNMSVDDFKVHLRFPHLFAEHNDESLEDKLFKYIKHISSVTGGPVAAVTYYRMAYYLQNLFLDTAANDAIALLNSKALFEKKVGPYISEPPEYWEA
B2: NOP58 Ribonucleoprotein (protein, UniProt Q6DFW4 1-536)
chain: MLVLFETSVGYAIFKVLNEKKLQEVDSLWKEFETPEKANKIVKLKHFEKFQDTAEALAAFTALMEGKINKQLKKVLKKIVKEAHEPLAVADAKLGGVIKEKLNLSCIHSPVVNELMRGIRSQMDGLIPGVEPREMAAMCLGLAHSLSRYRLKFSADKVDTMIVQAISLLDDLDKELNNYIMRCREWYGWHFPELGKIISDNLTYCKCLQKVGDRKNYASASLSEFLSEEVEAEVKAAAEISMGTEVSEEDICNILHLCTQVIEISEYRTQLYEYLQNRMMAIAPNVTVMVGELVGARLIAHAGSLLNLAKHAASTVQILGAEKALFRALKSRRDTPKYGLIYHASLVGQSSPKHKGKISRMLAAKTVLAIRYDAFGEDSSSAMGIENRAKLEARLRILEDRGIRKISGTGKALAKAEKYEHKSEVKTYDPSGDSTLPTCSKKRKIEEVDKEDEITEKKAKKAKIKIKAEVEEEMEEEEAEEEQVVEEEPTVKKKKKKDKKKHIKEEPLSEEEPCTSTAVPSPEKKKKKKKKKDAED
B3: Glutamine Rich 1 (protein, UniProt Q3UA37 1-777)
chain: MNNSLENTISFEEYIRVKARSVPQHRMKEFLDSLASKGPEALQEFQQTATTTMVYQQGGNCIYTDSTEVAGSLLELACPVTTSVQPQTQQEQQIQVQQPQQVQVQVQVQQSPQQVSAQQLSPQFTVHQPAEQPIQVQVQIQGQAPQSAAPSIQTPSLQSPSPSQLQAAQIQVQHVQAAQQIQAAEIPEEHIPHQQIQAQLVAGQSLAGGQQIQIQTVGALSPPPSQQGSPREGERRVGTASVLQPVKKRKVDMPITVSYAISGQPVATVLAIPQGQQQSYVSLRPDLLTVDSAHLYSATGTITSPTGETWTIPVYSAQPRGDPQQQSITHIAIPQEAYNAVHVSGSPKALAAVKLEDDKEKMVGTTSVVKNSHEEVVQTLANSLFPAQFMNGNIHIPVAVQAVAGTYQNTAQTVHIWDPQQQPQQQTAQEQTPPPQQQQQQLQVTCSAQTVQVAEVEPQSQPQPSPELLLPNSLKPEEGLEVWKNWAQTKNAELEKDAQNRLAPIGRRQLLRFQEDLISSAVAELNYGLCLMTREARNGEGEPYDPDVLYYIFLCIQKYLFENGRVDDIFSDLYYVRFTEWLHEVLKDVQPRVTPLGYVLPSHVTEEMLWECKQLGAHSPSTLLTTLMFFNTKYFLLKTVDQHMKLAFSKVLRQTKKSPSNPKDKSTSIRYLKALGIHQTGQKVTDDMYAEQTENPENPLRCPIKLYDFYLFKCPQSVKGRNDTFYLTPEPVVAPNSPIWYSVQPISREQMGQMLTRILVIREIQEAIAVANATTMH
B4: OTU Deubiquitinase 7B (protein, UniProt B2RUR8 1-840)
chain: MTLDMDAVLSDFVRSTGAEPGLARDLLEGKNWDVSAALSDFEQLRQVHAGNLSPPFSGGSTCPKTPEKGGSDREPTRPSRPILQRQDDVIQEKRLSRGISHASSSIVSLARSHVSSNGGGGGSSEHPLEMPICAFQLPDLTVYKEDFRSFIERDLIEQSMLVALEQAGRLNWWVSMDSTCQRLLPLATTGDGNCLLHAASLGMWGFHDRDLVLRKALYALMEKGVEKEALRRRWRWQQTQQNKESGLVYTEDEWQKEWNELIKLASSEPRMHLGSNGASGGGVESSEEPVYESLEEFHVFVLAHVLKRPIVVVADTMLRDSGGEAFAPIPFGGIYLPLEVPASQCHRSPLVLAYDQAHFSALVSMEQKESAKEQAVIPLTDSEHKLLPLHFAVDPGKGWEWGKDDNDNVRLASIILSLEVKLHLLHSYMNVKWIPLSSDSQAPLAQPESPTASAGDEPRSTPESGESDKESVGSSSLGNEGSRRKEKSKRDREKDKKRADSVANKLGSFGKTLGSKLKKNMGGLMHSKGPKPGGLGSGSGISSGTETLEKKKKNNTLKSWKGGKEEAAGDGPVSEKPPSESVGNGGSKYSQEVMQSLSTMRIAMQGEGKYIFVGTLKMGHRHQYQEEMIQRYLADAEERFLAEQKQKEVERKIMNGGLVSGPPPAKKPEPDGGEDQPSDSPAEPKAMAFSTAYPGGFTIPRPSGGGVHCQEPRRQLAGGPCVGGLPSYATFPRQYPGRPYPHQDNIPALEPGKDGVHRGALLPPQFRVADSYSNGYREPPEPDGWAGAPRGLPPTQTKCKQPNCSFYGHPETNNLCSCCYREELRRREREPGGELLAHRF

The molecules below were run against WT PD-L1 (programmed death ligand 1) tagged with GFP (mouse) (UniProt Q9EP73) (assay: affinity purification with mass spectrometry; GFP-tagged PD-L1 precipitated from SVEC4-10 lysate overnight with GST-tagged anti-GFP nanobody on GST beads, washed 4x in TBS with 0.1% Tween-20; cells with or without sodium vanadate; in-gel trypsin digest, LC-MS/MS; N = 6 samples per cell type).
With “ADP ribosylation factor4 (from UniProt P61750 1-180)” the binding was “binds”.
For “ADP-ribosylation factor GTPase-activating protein 1 (from UniProt Q9EPJ9 1-414)”, the binding was “binds”.
In the case of “ADP-ribosylation factor GTPase-activating protein 2 (from UniProt Q99K28 1-520)”, the binding is reported as “binds”.
For “ADP-ribosylation factor GTPase-activating protein 3 (from UniProt Q9D8S3 1-523)”, the binding was “binds”.
For “Adenosylhomocysteinase Like 1 (from UniProt Q80SW1 1-530)”, the binding was “binds”.
With Arhgap5 (from UniProt P97393 1-1503) the binding was “binds”.
With “Brefeldin A-inhibited guanine nucleotide-exchange protein 2 (from UniProt A2A5R2 1-1792)” the binding was “binds”.
In the case of “Obscurin Like Cytoskeletal Adaptor 1 (from UniProt D3YYU8 1-1804)”, the binding is reported as “binds”.
In the case of PIK3C3 (from UniProt Q6PF93 1-887), the binding is reported as “binds”.
For PIK3CB (from UniProt Q8BTI9 1-1064), the binding was “binds”.
Paxillin (from UniProt Q8VI36 1-591) was tested, and the binding was “binds”.
For “Prolyl 4-Hydroxylase Subunit Alpha 1 (from UniProt Q60715 18-534)”, the binding was “binds”.
For “RuvB Like AAA ATPase 2 (from UniProt Q9WTM5 1-463)”, the binding was “binds”.
With “Salt Inducible Kinase 2 (from UniProt Q8CFH6 1-931)” the binding was “binds”.
“Signal transducer and activator of transcription 3 (from UniProt P42227 1-770)” was tested, and the binding was “binds”.
With “TBC1 Domain Family Member 23 (from UniProt Q8K0F1 1-684)” the binding was “binds”.
In the case of B1, the binding is reported as “binds”.
With B2 the binding was “binds”.
For B3, the binding was “binds”.
For B4, the binding was “binds”.
